Experimental data from PubChem BioAssay AID2685 (National Center for Advancing Translational Sciences (NCATS), 2010).
Some of the results follow. These are further read-outs of the screen, such as a control signal, another cell line or another target. No call is given for them. Compounds called inactive in the main read-out are mostly missing here. Words in brackets tell the shape of the fitted curve; partial curves, single points and poor fits give uncertain potencies.

Test: qHTS Assay for Lipid Storage Modulators in Drosophila S3 Cells;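 for cell number change: cells counted by Cell Tracker Red CMTPX staining in the red channel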
Conditions: BODIPY lipid droplet fluorescence, 18-24 h; for cell number change: measured here: cell count max response, cells fed with added oleic acid
Method in brief: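 Laser-scanning cytometry quantifies lipid droplet accumulation (500–530 nm total intensity; droplet/cell object ratio) in oleic acid-fed (400 uM added) Drosophila S3 cells treated with a concentration series. 20 uM Triacsin C defined 100% inhibition.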

[1] = measured here: cell number channel AC50, cells fed with added oleic acid
[2] = measured here: lipid fluorescence (Fed channel) AC50, cells fed with added oleic acid

O=c1c2ccccc2nc(CNCC2CCCO2)n1-c1ccc(F)cc1 (stereo not drawn)
cell number change: 90.5% | AC50 [1]: 18.4 µM [rising, single point]

CC(C)(C)C(=O)OCC12CCC(O1)C1(C)C(=O)OCC21 (stereo not drawn)
cell number change: -19.6%

CCCCCC(=O)N[C@@H](c1ccccc1)[C@@H](O)C(=O)O[C@H]1C[C@@]2(O)[C@@H](OC(=O)c3ccccc3)C3[C@](C)(C(=O)[C@H](O)C(=C1C)C2(C)C)[C@@H](OC1OCC(O)C(O)C1O)C[C@H]1OC[C@@]31OC(C)=O (stereo partly drawn)
cell number change: -9.39% | AC50 [2]: 0.326 µM [falling, full curve]

CC(C(N)=O)N1CC(c2ccccc2)CC1=O (stereo not drawn)
cell number change: 1.96%

Cc1ccc(-c2nc3ccccc3c(=O)n2-c2ccc(O)cc2)cc1
cell number change: 102% | AC50 [1]: 16.4 µM [rising, partial curve] | AC50 [2]: 18.4 µM [rising, partial curve]

COc1cc2c(cc1OC)C(C(=O)NC(C)C)C1CCCCN1C2=O (stereo not drawn)
cell number change: 20.4% | AC50 [2]: 29.1 µM [rising, single point]

CCOC(=O)c1c(/N=C/c2c(O)n(-c3ccc(F)cc3)c(=S)[nH]c2=O)sc2c1CCCC2
cell number change: 11.4% | AC50 [2]: 0.146 µM [falling, full curve, poor fit]

COc1ccc(O)c(C(C)(C)C)c1
cell number change: 118% | AC50 [1]: 29.1 µM [rising, single point]

CCOC(=O)C1SC2(C(F)F)CC1(O)c1c(c(OC)c3occc3c1OC)O2 (stereo not drawn)
AC50 [1]: 0.517 µM [rising, full curve] | AC50 [2]: 0.58 µM [rising, full curve]

Cc1ccc(N=C(N(C)C)P(=O)(N(C)C)N(C)C)cc1
cell number change: -18.3% | AC50 [2]: 0.164 µM [falling, full curve, poor fit]

CN1C(=O)C(Cc2c[nH]c3ccccc23)C(=O)N(C)C1=O
AC50 [1]: 6.51 µM [rising, single point] | AC50 [2]: 5.17 µM [rising, single point]

CN(CC(=O)Nc1cccc(F)c1)C(=O)Cn1c(=O)oc2ccccc21
AC50 [1]: 0.00731 µM [falling, full curve, poor fit]

O=C1NC(=O)C2(C(=O)N1)C(c1ccc(F)cc1)NC(=S)NC2c1ccc(F)cc1 (stereo not drawn)
cell number change: -102% | AC50 [1]: 16.4 µM [falling, single point] | AC50 [2]: 0.259 µM [rising, full curve, poor fit]

CCOCCCNC(=O)CN1C2CCC1CC(O)(c1ccc(OC)cc1)C2 (stereo not drawn)
cell number change: 5.36% | AC50 [2]: 0.651 µM [rising, full curve, poor fit]

Fc1ccc(C2=CCN(C(c3cccs3)c3nnnn3CCc3ccccc3)CC2)cc1 (stereo not drawn)
cell number change: 52.7% | AC50 [1]: 7.31 µM [rising, partial curve] | AC50 [2]: 3.26 µM [rising, partial curve]

Cn1c2ccccc2c2c(C(=O)N3CCC4(CC3)OCCO4)cn(C3CCCC3)c(=O)c21
AC50 [1]: 4.11 µM [rising, partial curve] | AC50 [2]: 4.61 µM [rising, partial curve]

O=C(Cc1ccccc1)OCC(=O)N1CCN(S(=O)(=O)c2ccc(Cl)cc2)CC1
cell number change: 1.39% | AC50 [2]: 29.1 µM [falling, single point]

O=c1[nH]c(=O)n(Cc2ccco2)c(O)c1C=NCc1cccs1
cell number change: -1.73% | AC50 [2]: 6.51 µM [falling, single point]

COc1ccc(C(=O)CN2CCOCC2)cc1F
cell number change: -40.7% | AC50 [1]: 23.1 µM [falling, partial curve] | AC50 [2]: 32.6 µM [falling, partial curve, poor fit]

CCC(C)(C)c1ccc(O)cc1
cell number change: -31.5% | AC50 [1]: 4.11 µM [falling, single point] | AC50 [2]: 0.206 µM [falling, full curve]

O=C1NC(=S)N(c2ccccc2)C(=O)/C1=C/c1ccco1
cell number change: 21.2% | AC50 [2]: 29.1 µM [rising, single point]

Cc1ccc(-c2nc3ccc(Cl)cc3n2OC(=O)N(C)C)cc1
cell number change: 9.73% | AC50 [1]: 0.164 µM [rising, full curve, poor fit] | AC50 [2]: 0.146 µM [rising, full curve, poor fit]

CC12CCC3C(CCC4C/C(=N/O)CCC43C)C1CCC2O (stereo not drawn)
cell number change: 11.7%

O=C(O)CCn1cc(C=C2C(=O)NC(=S)NC2=O)c(-c2ccccc2)n1
cell number change: 0.351% | AC50 [2]: 2.06 µM [falling, partial curve, poor fit]

Cc1ccc(C(=O)C2(C)N(O)C(C)C(c3cccs3)=[N+]2[O-])cc1 (stereo not drawn)
cell number change: -21.2% | AC50 [2]: 1.16 µM [falling, full curve]

CCCCC(CC)CNCC(O)c1ccccc1 (stereo not drawn)
AC50 [2]: 0.58 µM [falling, single point]

CCOC(=O)C1C2NC(=O)N(Cc3ccccc3)C1(C)Oc1c(OC)cccc12 (stereo not drawn)
cell number change: -12.8% | AC50 [2]: 1.64 µM [falling, partial curve]

CNP(=O)(Oc1ccccc1)OC12CC3CC(CC(C3)C1)C2 (stereo not drawn)
cell number change: 8.62% | AC50 [1]: 6.51 µM [falling, single point]

Cc1cccc(N2C(=O)CC(=O)NC2=O)c1
cell number change: -15.7% | AC50 [2]: 4.11 µM [falling, full curve]

Cc1ccc(C2=NN(CCC(=O)N3CCC4(CC3)OCCO4)C(=O)CC2)cc1
cell number change: 16.3% | AC50 [2]: 0.82 µM [falling, single point]

Cc1nc2ccccc2c(=O)n1-c1ccc(-c2ccccc2)cc1
cell number change: 2.13%

CC/C(=N\N1CCCCCC1)c1c(O)n(-c2ccccc2C)c(=O)[nH]c1=O
cell number change: 22.6% | AC50 [1]: 0.461 µM [falling, single point] | AC50 [2]: 29.1 µM [falling, single point]

COC(=O)C1=C(c2ccc(OC)c(OC)c2)C[C@@H]2CC[C@H]1N2C(=O)NCCCOC(C)C
cell number change: 16.4% | AC50 [2]: 6.51 µM [rising, single point]

Cc1cc(OCC(=O)N[C@@H](Cc2ccccc2)C(=O)O)c2c3c(c(=O)oc2c1)CCC3
cell number change: 9.18%

[N-]=[N+]=CC(=O)OC[C@H](N)C(=O)O
cell number change: 33.6% | AC50 [2]: 0.82 µM [falling, partial curve, poor fit]

N#Cc1cc2c(nc1SCC(=O)Nc1cc(Cl)ccc1Cl)C1CCN2CC1
cell number change: -42.1% | AC50 [1]: 16.4 µM [falling, single point] | AC50 [2]: 16.4 µM [falling, single point]

Nc1c2c(nc3sc4c(c13)CCCC4)CCCC2
cell number change: -30.4% | AC50 [1]: 8.2 µM [falling, partial curve, poor fit] | AC50 [2]: 13 µM [falling, partial curve, poor fit]

Fc1ccc(C(OCCN2CCCC2)c2ccc(Br)cc2)cc1 (stereo not drawn)
cell number change: -0.103% | AC50 [2]: 0.13 µM [rising, full curve, poor fit]

CC1CN(CC(=O)c2ccccc2Cl)CC(C)O1 (stereo not drawn)
cell number change: -10.6%

Cn1c(=O)oc2cc(S(=O)(=O)N3CCCc4ccccc43)ccc21
AC50 [2]: 6.51 µM [rising, full curve, poor fit]

CCN(CC)CCNCC(=O)Nc1ccc(Cl)cc1C(=O)c1ccccc1
AC50 [2]: 1.64 µM [falling, partial curve]

CC(C)(C)c1ccc(CN2C(=O)CN=C(c3ccccc3)c3ccccc32)cc1
cell number change: -11.5% | AC50 [2]: 0.0058 µM [falling, full curve, poor fit]

CCC(=Nc1ccc2c(c1)CCC2)c1c(O)n(-c2ccc(OC)cc2)c(=O)[nH]c1=O
cell number change: -24.4% | AC50 [1]: 0.13 µM [falling, full curve, poor fit] | AC50 [2]: 0.731 µM [falling, full curve]

CCN1C(=O)NC(=O)/C(=C\c2cn(CC(=O)N3CCCC3)c3ccccc23)C1=O
cell number change: 33.6% | AC50 [1]: 0.0651 µM [rising, full curve, poor fit] | AC50 [2]: 0.00517 µM [rising, full curve, poor fit]

Cc1cccc(-n2c(O)c(C=NC34CN5CN(CN(C5)C3)C4)c(=O)[nH]c2=O)c1
cell number change: 65.8% | AC50 [1]: 29.1 µM [rising, single point]

C[N+]12CN3CN(CN(C3)C1)C2
cell number change: -29.8% | AC50 [1]: 0.184 µM [falling, full curve] | AC50 [2]: 25.9 µM [falling, partial curve]

CC(=O)N1CN2CN(C1)CN(C(C)=O)C2
cell number change: 18% | AC50 [2]: 0.00517 µM [rising, full curve, poor fit]

Cc1oc(-c2ccccc2)nc1CN1C(=O)CN=C(c2ccccc2)c2ccccc21
cell number change: 30.2% | AC50 [1]: 5.8 µM [rising, partial curve, poor fit] | AC50 [2]: 6.51 µM [rising, partial curve]

O=C(CSC1c2ccccc2-c2ccccc21)N/N=C/c1ccccc1
cell number change: -7.74% | AC50 [2]: 0.146 µM [falling, partial curve, poor fit]

CCOc1ccc(N2C(=O)NC(=O)/C(=C\c3ccc(N4CCCCC4)o3)C2=O)cc1
cell number change: -2.21% | AC50 [2]: 6.51 µM [falling, single point]

CCn1ccnc1CN1CCCC(C(=O)c2cc(Cl)ccc2OC)C1 (stereo not drawn)
cell number change: 14.9% | AC50 [2]: 0.259 µM [rising, full curve, poor fit]

CCOP(=O)(OCC)C(NC(=O)c1ccccc1Cl)=C(Cl)Cl
cell number change: -18.8% | AC50 [1]: 0.651 µM [falling, full curve, poor fit]

CCCCn1c(=O)c(C(=O)NCc2ccccc2)c(O)c2ccccc21
cell number change: 28%

O=C(c1ccccc1)C(CN1CCCC1)c1ccccc1 (stereo not drawn)
cell number change: -73% | AC50 [1]: 25.9 µM [falling, single point] | AC50 [2]: 29.1 µM [falling, single point]

CCc1ccc(N2C(=O)NC(=O)C(CCc3ccncc3)(CCc3ccncc3)C2=O)cc1
cell number change: -45.3% | AC50 [1]: 32.6 µM [falling, single point]
